Measured values reported in publication doi:10.1101/2025.05.27.656411.
No constants are given. Whether binding was seen depends on the method and setting. In cells and extracts the contact can be indirect. Here binding means that the protein was enriched with, or labelled near, the bait; the list need not be complete.

Target: ECM29 fused to a 3×HA-YFP tag (Arabidopsis)
Experiment: affinity purification with mass spectrometry

binding: binds
B1: RPN6 (protein, UniProt Q9LP45 1-419)
chain: MVSYRATTETISLALEANSSEAITILYQVLEDPSSSPEAIRIKEQAITNLCDRLTEEKRGEDLRKLLTKLRPFFSLIPKAKTAKIVRGIIDAVAKIPGTTDLQITLCKEMVEWTRAEKRTFLRQRVEARLAALLMENKEYVEALALLSTLVKEVRRLDDKLLLVDIDLLESKLHFSLRNLPKAKAALTAARTAANAIYVPPAQQGTIDLQSGILHAEEKDYKTGYSYFFEAFESFNALGDPRAVFSLKYMLLCKIMVSQADDVAGIISSKAGLQYVGPDLDAMKAVADAHSKRSLKLFENALRDYKAQLEDDPIVHRHLSSLYDTLLEQNLCRLIEPFSRVEIAHIAELIGLPLDHVEKKLSQMILDKKFAGTLDQGAGCLIIFEDPKADAIYSATLETIANMGKVVDSLYVRSAKIMS
